This is an account of results in patent US20240075064A1, “COMPOSITIONS AND METHODS FOR EXPANSION OF T CELLS AND TUMOR INFILTRATING LYMPHOCYTES” (OBSIDIAN THERAPEUTICS, INC., priority 2021, published 2024).

Sequences of proteins named here, by UniProt entry; tags and fusion partners are left off. Residues count along the entry.
UniProt Q13261, residues 31-205: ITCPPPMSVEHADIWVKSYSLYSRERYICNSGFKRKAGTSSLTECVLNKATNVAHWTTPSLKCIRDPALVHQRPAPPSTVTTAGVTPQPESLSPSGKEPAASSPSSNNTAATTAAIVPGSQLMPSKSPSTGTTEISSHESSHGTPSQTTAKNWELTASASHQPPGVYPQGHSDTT

This assay concerns the target constitutive mbIL15 (OT-IL15-292) on transduced TILs (human). Description: flow cytometry; biotinylated IL15RaFc plus streptavidin-BV421 on transduced TILs, co-stained with anti-IL15-DyL650.

Results are given in words; binding and its absence hold for the method and conditions named. Some entries that bind do so weakly or less than the wild type.

On to “biotinylated IL15RaFc (ACROBiosystems) (from UniProt Q13261 31-205) (Fc fusion)”, for which the binding result is listed as “binds”.
